Reference: PubChem BioAssay AID1259326 (Drosophila RNAi Screening Center, 2017)

Screen: 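Knock-downs that shift cellular ATP after a high zinc chloride dose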
Cells: Drosophila S2R+ cells
Reagents: long dsRNA against Drosophila genes
Duration: about 5 days (4 days of RNAi, then 1 day of zinc)
Conditions: zinc chloride added to 15 mM final for one day
Measurement: 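Luminescent ATP signal marks surviving cells, read after RNAi for 4 days then 15 mM zinc chloride for 1 day; z-scores are replicate means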
Direction: averaged z-score: higher = more ATP than other wells, i.e. more surviving cells, after zinc; ATP luminescence: higher = more ATP, i.e. more surviving cells
Active means: 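Active if the averaged z-score exceeds 1.5 or falls under -1.5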
This is an unselected part of 573 deposited reagents. 39 of them (6.8%) were called active. 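All actives have raised ATP, meaning more surviving cells; in these data active calls sit at averaged z-scores near 1.5 or above.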 Raw values vary from plate to plate and are shown uncorrected. Entries without a mark were called inactive. Reagents against one gene are numbered here. Not stated in the record: the amount of reagent.

For bur (GeneID 45830) #1, the values are averaged z-score -0.926; ATP luminescence, replicate 1 = 65211; ATP luminescence, replicate 2 = 57528.
Depletion of bur (GeneID 45830) #2 resulted in: averaged z-score -0.302; ATP luminescence, replicate 1 = 59114; ATP luminescence, replicate 2 = 72453.
Against pk (GeneID 45343) #1 the deposit lists averaged z-score -0.823; ATP luminescence, replicate 1 = 74901; ATP luminescence, replicate 2 = 67372.
After knock-down of pk (GeneID 45343) #2, the record shows averaged z-score -0.296; ATP luminescence, replicate 1 = 67914; ATP luminescence, replicate 2 = 80304.
pk (GeneID 45343) #3 showed averaged z-score -0.533; ATP luminescence, replicate 1 = 61660; ATP luminescence, replicate 2 = 68693.
After knock-down of Gfat2 (GeneID 43373) #1 the results were averaged z-score -0.059; ATP luminescence, replicate 1 = 96103; ATP luminescence, replicate 2 = 74369.
Depletion of Gfat2 (GeneID 43373) #2 resulted in: averaged z-score -0.294; ATP luminescence, replicate 1 = 77858; ATP luminescence, replicate 2 = 57528.
For Gfat2 (GeneID 43373) #3, the entry reads averaged z-score -0.451; ATP luminescence, replicate 1 = 61558; ATP luminescence, replicate 2 = 72122.

2 of these entries, set out differently:
Gene | reagent | averaged z-score | ATP luminescence, replicate 1 | ATP luminescence, replicate 2
pk (GeneID 45343) | 1 | -0.823 | 74901 | 67372
pk (GeneID 45343) | 2 | -0.296 | 67914 | 80304

The listing continues.
Ocrl (GeneID 31157) #1 scored averaged z-score 0.0773; ATP luminescence, replicate 1 = 99740; ATP luminescence, replicate 2 = 75467.
Ocrl (GeneID 31157) #2 gave averaged z-score 0.193; ATP luminescence, replicate 1 = 75793; ATP luminescence, replicate 2 = 78653.
With knock-down of Ocrl (GeneID 31157) #3, the screen gave averaged z-score -0.61; ATP luminescence, replicate 1 = 72807; ATP luminescence, replicate 2 = 61078.
For EcR (GeneID 35540) #1, the entry reads averaged z-score -0.406; ATP luminescence, replicate 1 = 78589; ATP luminescence, replicate 2 = 67749.
EcR (GeneID 35540) #2 showed averaged z-score -0.994; ATP luminescence, replicate 1 = 68520; ATP luminescence, replicate 2 = 58092.
